Counter-ions that a name gives are not always drawn. Some of the results follow. Repeats are few or missing, and single values can be far off.
Legend:
MIA PaCa-2 parental = assay: parental cell viability relative to untreated parental control; higher = more surviving cells; details: treatment time: 9 days
MIA PaCa-2 persister = assay: persister cell viability relative to untreated persister control; higher = more surviving persister cells; details: treatment time: 9 days; cell state: persister (100 nM gemcitabine + 100 nM Torin1)

Row | Structure (SMILES) | parental cell viability (MIA PaCa-2 parental) [%] | persister cell viability (MIA PaCa-2 persister) [%]
1 | c1ccc(-c2ccc(CNc3nc(-c4ccccn4)nnc3-c3ccccc3)cc2)cc1 (inhibitor concentration: 100nM) | 80 | 80
2 | CN(C)C(=O)c1cc2cnc(Nc3ccc(N4CCNCC4)cn3)nc2n1C1CCCC1 (inhibitor concentration: 1µM) | 97 | 210
3 | COc1cc2c(NC3CCN(C)CC3)cc(-c3ccc(C)o3)nc2cc1OCCCN1CCCC1 (inhibitor concentration: 10nM) | 100 | 101
4 | Cc1cc([C@@H](C)Nc2ccccc2C(=O)O)c2nc(N3CCOCC3)cc(=O)n2c1 (inhibitor concentration: 30µM) | 61 | 91
5 | CC(C)S(=O)(=O)c1ccc2nccc(Nc3ccc4scnc4c3)c2c1 (inhibitor concentration: 30µM) | 60 | 250
6 | O=C(NC[C@H](O)CN1CCc2ccccc2C1)c1ccnc(NC2CCC2)c1 (inhibitor concentration: 10µM) | 76 | 97
7 | c1cc(-c2cnn3cc(-c4ccc(OCCN5CCCCC5)cc4)cnc23)ccn1 [Dorsomorphin (hydrochloride)] (inhibitor concentration: 10µM) | 81 | 99
8 | COc1cc(OC)c(/C=C/S(=O)(=O)Cc2ccc(OC)c(OP(=O)(O)O)c2)c(OC)c1 [Briciclib] (inhibitor concentration: 3nM) | 80 | 50
9 | COc1ncc(-c2ccc3nccc(-c4ccnnc4)c3c2)cc1NS(=O)(=O)c1ccc(F)cc1F (inhibitor concentration: 1µM) | 11 | 96
10 | Cc1cc2c(C(N)=O)cccc2n1-c1nc2c(c(NCc3ccccc3)n1)COCC2 (inhibitor concentration: 300nM) | 20 | 50
11 | NC1(C(=O)N[C@@H](CCO)c2ccc(Cl)cc2)CCN(c2nc[nH]c3nccc2-3)CC1 [Capivasertib] (inhibitor concentration: 30µM) | 84 | 25
12 | C[C@@]1(C(=O)Nc2ccc(F)nc2)CCCN1c1nc(Nc2cc(C3CC3)n[nH]2)c2cccn2n1 (inhibitor concentration: 10µM) | 6 | 97
13 | Cc1cc(Nc2cc(N)ncn2)c(=O)n2c1C(=O)NC21CCCCC1 [Tomivosertib (eFT-508)] (inhibitor concentration: 100µM) | 79 | 108
14 | CC(C)[C@H](NC(=O)[C@H](CCC(=O)O)NC(=O)[C@H](C)NC(=O)OC(C)(C)C)C(=O)N[C@H](C=O)CC(=O)O [Boc-AEVD-CHO (trifluoroacetate-salt)] (inhibitor concentration: 10µM) | 102 | 95.5
15 | Cn1ncc(Cl)c1-c1cc(C(=O)N[C@H](CN)Cc2ccc(F)c(F)c2)oc1Cl [Uprosertib] (inhibitor concentration: 3µM) | 97 | 102
16 | Cc1cnc(NC(=O)Nc2cc(Br)c(C)cc2OC[C@@H]2CNCCO2)cn1 (inhibitor concentration: 30nM) | 92 | 6
17 | Cc1cc(N)c2cc(NC(=O)Nc3ccc4nc(C)cc(N)c4c3)ccc2n1 [Surfen] (inhibitor concentration: 30µM) | 80 | 2
18 | C[C@@H]1COCCN1c1cc(C2([S@](C)(=N)=O)CC2)nc(-c2cc[nH]c3nccc2-3)n1 (inhibitor concentration: 3µM) | 80 | 12
19 | CC[C@H](C)[C@H](NC(C)=O)C(=O)N[C@@H](CCC(=O)O)C(=O)N[C@H](C(=O)N[C@H](C=O)CC(=O)O)[C@@H](C)O [Ac-IETD-CHO (trifluoroacetate-salt)] (inhibitor concentration: 10µM) | 102 | 95
20 | N#CC[C@H](C1CCCC1)n1cc(-c2ncnc3[nH]ccc23)cn1 [Ruxolitinib (phosphate)] (inhibitor concentration: 60µM) | 5 | 101
21 | COC1=CC(c2cc3ccccc3[nH]2)=N/C1=C\c1[nH]c(C)cc1C [Obatoclax (mesylate)] (inhibitor concentration: 30nM) | 100 | 99
22 | CC(C)(C#N)c1ccc(N2C(=O)OCc3cnc4ccc(-c5cnc6ccccc6c5)cc4c32)cc1 (inhibitor concentration: 10µM) | 100 | 104

Reformatted: entries from further up.
Row,Structure (SMILES),parental cell viability (MIA PaCa-2 parental) [%],persister cell viability (MIA PaCa-2 persister) [%]
10,Cc1cc2c(C(N)=O)cccc2n1-c1nc2c(c(NCc3ccccc3)n1)COCC2 (inhibitor concentration: 300nM),20,50
11,NC1(C(=O)N[C@@H](CCO)c2ccc(Cl)cc2)CCN(c2nc[nH]c3nccc2-3)CC1 [Capivasertib] (inhibitor concentration: 30µM),84,25

From the supplement of paper PMC9671908
